What all share (experiment): two-hybrid; mammalian two hybrid in AD293 cells: Gal4DBD–NR2E3LBD (pBind-GAL4) and VP16AD–NR2E3LBD (pACT-VP16), luciferase reporter normalised to Renilla
For assay [1], the target named is NR2E3 LBD (residues 192-410) L375R (human) (UniProt Q9Y5X4).
The target in assay [2] is NR2E3 LBD (residues 192-410), wild type, as Gal4DBD–NR2E3LBD and VP16AD–NR2E3LBD (human) (UniProt Q9Y5X4).
Assay [3] has as its target NR2E3 LBD (residues 192-410) L372R/L375R (human) (UniProt Q9Y5X4).
In assay [4] the target is NR2E3 LBD (residues 192-410) L372R (human) (UniProt Q9Y5X4).

Chains of the proteins cited; added tags and fusions are not shown. Lines headed by an entry give the natural chain unless they say otherwise; changes in a name come on top. A line that says so, or that is headed by a name, gives the form on record, which may keep a tag or linker. Residues count along the entry.
NR2E3 LBD (residues 192-410), wild type, as Gal4DBD–NR2E3LBD and VP16AD–NR2E3LBD (Q9Y5X4, residues 192-410): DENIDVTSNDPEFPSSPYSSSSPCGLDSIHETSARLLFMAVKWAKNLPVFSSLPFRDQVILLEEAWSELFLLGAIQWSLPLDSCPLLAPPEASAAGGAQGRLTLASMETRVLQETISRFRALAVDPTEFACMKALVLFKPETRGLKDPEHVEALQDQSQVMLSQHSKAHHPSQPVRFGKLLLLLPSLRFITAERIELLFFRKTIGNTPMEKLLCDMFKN
NR2E3 LBD (residues 192-410) L375R (Q9Y5X4, form named): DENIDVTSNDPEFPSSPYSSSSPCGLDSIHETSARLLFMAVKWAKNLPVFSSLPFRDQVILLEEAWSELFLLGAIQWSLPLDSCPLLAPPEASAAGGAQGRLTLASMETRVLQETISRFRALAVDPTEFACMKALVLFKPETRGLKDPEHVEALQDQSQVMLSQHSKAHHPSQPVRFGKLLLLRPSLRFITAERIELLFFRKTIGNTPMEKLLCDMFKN
NR2E3 LBD (residues 192-410) L372R/L375R (Q9Y5X4, form named): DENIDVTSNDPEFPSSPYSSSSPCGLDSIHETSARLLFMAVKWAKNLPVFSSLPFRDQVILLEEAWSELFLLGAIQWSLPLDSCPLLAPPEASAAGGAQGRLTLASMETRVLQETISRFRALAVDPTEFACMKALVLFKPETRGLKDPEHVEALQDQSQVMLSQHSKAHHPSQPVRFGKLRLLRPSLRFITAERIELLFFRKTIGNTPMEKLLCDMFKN
NR2E3 LBD (residues 192-410) L372R (Q9Y5X4, form named): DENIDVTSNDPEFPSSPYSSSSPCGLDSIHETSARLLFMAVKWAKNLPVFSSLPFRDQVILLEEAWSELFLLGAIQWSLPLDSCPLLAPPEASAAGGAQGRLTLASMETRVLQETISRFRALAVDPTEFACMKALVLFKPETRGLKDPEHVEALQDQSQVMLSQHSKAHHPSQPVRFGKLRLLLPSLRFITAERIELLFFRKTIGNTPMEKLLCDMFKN

These are yes or no findings as the source states them, for the method shown. Some entries that bind do so weakly or less than the wild type.

Consider “NR2E3 LBD (residues 192-410) L375R (from UniProt Q9Y5X4 192-410) (domain or fragment)”, for which the binding result in assay [1] is “no binding”.
For the substance “NR2E3 LBD (residues 192-410), wild type, as Gal4DBD–NR2E3LBD and VP16AD–NR2E3LBD (from UniProt Q9Y5X4 192-410) (domain or fragment)”, the binding entry in assay [2] was “binds”.
Take “NR2E3 LBD (residues 192-410) L372R/L375R (from UniProt Q9Y5X4 192-410) (domain or fragment)”: the binding result in assay [3] is given as “no binding”.
As for “NR2E3 LBD (residues 192-410) L372R (from UniProt Q9Y5X4 192-410) (domain or fragment)”, the binding entry in assay [4] is reported as “no binding”.

The record behind these values is paper PMC3771917, “The Crystal Structure of the Orphan Nuclear Receptor NR2E3/PNR Ligand Binding Domain Reveals a Dimeric Auto-Repressed Conformation” (PLoS ONE, 2013).
